Results: PubChem BioAssay AID493014 (National Center for Advancing Translational Sciences (NCATS), 2011)
Values joined by “and” are separate entries in the source; they are usually repeats but may differ in a detail not shown here. Equal entries are not always repeated. The list shows a part of the results. Further columns of the screen follow, without active or inactive calls. Most of these compounds were active or inconclusive in the main read-out, so they are no random draw. Potencies come from curve fits of mixed quality, noted in brackets.

Experiment: qHTS Assay to Find Inhibitors of Chronic Active B-Cell Receptor Signaling
Conditions: ABC-DLBCL IkBa-CBG/CBR reporter, luminescence ratio (green luciferase fused to IkBa over red control in TMD8 lymphoma cells), 4 h
How it was run: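 TMD8 human ABC-DLBCL cells with doxycycline-inducible IκBα–green luciferase fusion and unfused red luciferase, in 0.5% FBS medium; compounds up to 46 uM, 4 h at 37C. Green/red luminescence ratio, filter-overlap corrected, fitted to concentration-response curves.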

[1] = measured here: CBR red luminescence, cell number

In the case of CCc1ccc(-n2c(SCc3cccc(F)c3)nc3[nH]ncc3c2=O)cc1, the AC50 [1] is reported as 35.5 µM [falling, single point].
With Cc1n[nH]c(=S)n(/N=C/c2ccccn2)c1=O the AC50 [1] was 3.55 µM [falling, single point].
In the case of O=C(CN1CCCCCC1)Nc1ccccc1F, the AC50 [1] is reported as 0.461 µM [rising, full curve, poor fit].
With O=C(CNC(=O)c1ccccc1F)OCC(=O)N1CCCCC1 the AC50 [1] was 18.4 µM [rising, single point].
For CSc1ccccc1-c1nnc(-c2ccc(Cl)cc2Cl)o1, the AC50 [1] was 1.78 µM [rising, partial curve, poor fit].
For CC(=O)c1cccc(NC(=O)C(C)OC(=O)c2ccc(Br)o2)c1 (stereo unspecified), the AC50 [1] was 29.1 µM [rising, single point].
For CCCCNCC#CCOc1cc(C)ccc1C(C)C, the AC50 [1] was 12.6 µM [falling, partial curve].
In the case of O=C(NNC(=S)Nc1ccccc1C(F)(F)F)c1ccc(Br)o1, the AC50 [1] is reported as 14.1 µM [falling, single point].
For Nc1ccccc1SCC(=O)Nc1cccc2ccccc12, the AC50 [1] was 3.55 µM [falling, full curve, poor fit].
In the case of O=C(CC(=O)c1ccccc1)Nc1ccccc1C(F)(F)F, the AC50 [1] is reported as 12.6 µM [rising, single point].
In the case of O=C(CSc1ccc2nnc(CCNS(=O)(=O)c3ccccc3)n2n1)Nc1nc2ccccc2s1, the AC50 [1] is reported as 29.1 µM [falling, single point].
For Cc1cccc2cc(C#N)c(N3CCC(O)CC3)nc12, the AC50 [1] was 8.91 µM [rising, partial curve, poor fit].
In the case of COc1ccc(CNS(=O)(=O)c2ccc(OC)cc2)cc1, the AC50 [1] is reported as 23.1 µM [rising, partial curve, poor fit].
With Cc1ccc(NC(=O)COC(=O)C2(c3ccc(Cl)cc3)CCCC2)cc1 the AC50 [1] was 16.4 µM [falling, partial curve].
In the case of CC1=CCC2C(=O)N(c3nc(C)cc(C)n3)C(=O)C2C1 (stereo unspecified), the AC50 [1] is reported as 6.51 µM [rising, single point].
In the case of Cc1ccc(OCCC(=O)OCC(=O)Nc2cc(S(=O)(=O)N(C)C)ccc2C)cc1, the AC50 [1] is reported as 25.1 µM [falling, single point].
For C[C@@]12C(=O)Nc3ccc(F)cc3C(=O)N1[C@H]1c3cc(Br)ccc3OC[C@@H]1[C@@H]2c1ccccc1, the AC50 [1] was 0.92 µM [falling, full curve, poor fit].
For COc1ccc(OC)c(N2C(=O)CC(Cc3ccc(C)cc3)C2=O)c1 (stereo unspecified), the AC50 [1] was 20.6 µM [rising, single point].
For CC(=O)Nc1sc(NC(=O)c2ccc([N+](=O)[O-])cc2)nc1-c1cccs1, the AC50 [1] was 3.16 µM [rising, full curve, poor fit].
In the case of Cc1cc([N+](=O)[O-])nn1CCCC(=O)Nc1cc(Oc2ccccc2)cc([N+](=O)[O-])c1, the AC50 [1] is reported as 23.1 µM [rising, single point].
For CCOC(=O)c1cc(-c2ccc(OC(F)F)cc2)nc2c1c(=O)[nH]c(=O)n2C, the AC50 [1] was 2.31 µM [rising, partial curve, poor fit].
In the case of COc1ccc2oc(-c3ccc(C)c(NC(=O)c4ccc(N5CCOCC5)c([N+](=O)[O-])c4)c3)nc2c1, the AC50 [1] is reported as 3.55 µM [rising, partial curve].
In the case of CCOC(=O)C1=C(C)NC(=S)N(C(C)=O)C1c1ccc(OC)c(OC)c1 (stereo unspecified), the AC50 [1] is reported as 0.891 µM [rising, full curve, poor fit].
With CCOC(=O)C1=NOC(COc2ccccc2C=O)C1 (stereo unspecified) the AC50 [1] was 35.5 µM [falling, partial curve, poor fit].
For COc1ccccc1CCC(=O)Nc1ccc(C)cc1Cl, the AC50 [1] was 31.6 µM [falling, partial curve, poor fit].
For COc1ccc(Nc2nc(N)nc(CN3CCc4ccccc4C3)n2)cc1, the AC50 [1] was 35.5 µM [rising, single point] and the AC50 (measured here: IkBa-CBG green luminescence) was 35.5 µM [falling, single point].
In the case of COc1cccc(-c2ccc3ncnc(NCc4cccc(C)c4)c3c2)c1, the AC50 [1] is reported as 18.4 µM [falling, single point] and 29.1 µM [falling, single point].
In the case of CCc1noc(C)c1C(=O)Nc1nc(-c2ccc(Cl)cc2Cl)c(C)s1, the AC50 [1] is reported as 29.1 µM [rising, single point].
In the case of Cc1nc(=S)c2ccccc2[nH]1, the AC50 [1] is reported as 0.00461 µM [falling, full curve, poor fit].
For O=C(COC(=O)c1cccnc1)Nc1ccc(F)cc1, the AC50 [1] was 0.58 µM [falling, partial curve, poor fit].
For COc1ccc2c(c1)OC[C@H]1[C@H]2N2C(=O)c3cc(C)ccc3NC(=O)[C@@]2(C)[C@H]1c1ccccc1, the AC50 [1] was 29.1 µM [falling, single point].
With Cc1ccc(-n2c(SCC(N)=O)nc3c(c2=O)C2(CCCC2)Cc2ccccc2-3)cc1 the AC50 [1] was 18.4 µM [falling, single point].
In the case of CCOc1ccc(S(=O)(=O)N2CCC(C(=O)NCc3ccccn3)CC2)cc1Cl, the AC50 [1] is reported as 35.5 µM [falling, single point].
For CCn1c(SCC(=O)NCc2ccc3c(c2)OCO3)nnc1-c1cccs1, the AC50 [1] was 2.59 µM [rising, full curve, poor fit].
With C=C(C)c1cccc(C(C)(C)NC(=O)NC(c2ccccc2)c2ccc(OC)cc2)c1 (stereo unspecified) the AC50 [1] was 16.4 µM [falling, partial curve].
For Cc1nnc(SCCC(=O)Nc2ccc(Cl)cc2)o1, the AC50 [1] was 0.891 µM [rising, full curve, poor fit].
In the case of CCOC(=O)c1c(-c2ccc(-c3ccccc3)cc2)csc1NC(=O)CCN1CCOCC1, the AC50 [1] is reported as 7.31 µM [rising, partial curve].
For Cc1cc2c(cc1C)NC(=O)CC(C(F)(F)C(F)(F)C(F)(F)F)=N2, the AC50 [1] was 3.26 µM [rising, partial curve, poor fit].
For Cc1cccc(Nc2nnc(SCC(=O)Nc3cccc(S(=O)(=O)N4CCCCC4)c3)s2)c1, the AC50 [1] was 20.6 µM [falling, single point].
For CN(C)/C=C/C(=O)c1ccc(Cl)cc1Cl, the AC50 [1] was 22.4 µM [rising, single point].
